Laboratory results from publication PMC8617193.
Results are given in words; binding and its absence hold for the method and conditions named. Some entries that bind do so weakly or less than the wild type.

Sequences of proteins named here, by UniProt entry; tags and fusion partners are left off. A change or cut given only in a name is not applied to a line headed by its entry. A line that says so, or that is headed by a name, gives the form on record, which may keep a tag or linker.
UniProt Q9HD34: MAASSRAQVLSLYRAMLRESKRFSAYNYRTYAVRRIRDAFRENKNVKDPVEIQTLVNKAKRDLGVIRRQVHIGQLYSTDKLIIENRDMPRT
ISCU2-Y35D (Q9H1K1-1, form named): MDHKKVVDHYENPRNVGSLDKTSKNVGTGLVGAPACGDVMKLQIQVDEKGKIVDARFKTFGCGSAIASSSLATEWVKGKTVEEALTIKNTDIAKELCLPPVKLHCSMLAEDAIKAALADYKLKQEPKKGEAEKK
ISCU2-Y35K (Q9H1K1-1, form named): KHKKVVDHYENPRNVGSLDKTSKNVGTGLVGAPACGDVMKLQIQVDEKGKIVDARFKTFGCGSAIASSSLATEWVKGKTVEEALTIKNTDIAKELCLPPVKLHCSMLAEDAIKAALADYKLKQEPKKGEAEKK
UniProt P0A6A8: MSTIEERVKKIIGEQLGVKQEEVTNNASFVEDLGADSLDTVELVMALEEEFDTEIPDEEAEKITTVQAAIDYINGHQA

Legend:
[1] = molecular target: ISD11 as crystallised in the (NIAU2)2 complexes (human) (UniProt Q9HD34); experiment: crystal structure; (NIAU2)2 complexes with wild-type or mutant ISCU2, 16-18 mg/ml, sitting drop, 0.1 M MES pH 6.5, 22.5% PEG-400, 15 °C; space group P41212; 1.57-1.95 Å; both purified
[2] = molecular target: ISCU2-Y35D (human) (UniProt Q9H1K1); experiment: SEC; anaerobic analytical SEC (Superdex 75 10/300, buffer S) of enzymatic reconstitution mixtures; ISCU2 proteins in 20-fold excess over the other core ISC proteins; detection at 280, 320 and 420 nm; both purified
[3] = molecular target: ISCU2-Y35D (human) (UniProt Q9H1K1); experiment: cross-linking; 25 µM chemically reconstituted ISCU2 proteins in buffer S, UV irradiation 5 min on ice (di-tyrosine formation); fluorescence (Ex 320 nm, Em 380-480 nm) and reducing SDS-PAGE with anti-HIS immunoblot; both purified
[4] = molecular target: ISCU2-Y35K (human) (UniProt Q9H1K1); experiment: SEC; anaerobic analytical SEC (Superdex 75 10/300, buffer S) of enzymatic reconstitution mixtures; ISCU2 proteins in 20-fold excess over the other core ISC proteins; detection at 280, 320 and 420 nm; both purified

Substance: ACP as crystallised in the (NIAU2)2 complexes (from UniProt P0A6A8 1-78)
- binding [1]: binds

Substance: ISCU2-Y35D (from UniProt Q9H1K1-1 35-167)
- binding [2]: no binding (tested: 75–100 µM ISCU2 in the reconstitution)
- binding [3]: no binding (tested: 25 µM)

Substance: ISCU2-Y35K (from UniProt Q9H1K1-1 35-167)
- binding [4]: no binding (tested: 75–100 µM ISCU2 in the reconstitution)
